Some of these results come from one statement about several compounds together.
Test system: Mycosphaerella graminicola
Assay: In vivo preventive test on Mycosphaerella graminicola (wheat leaf spot)
Settings: dose of 500 ppm, preventive spray, wheat plants, grading 21 to 28 days after contamination

SMILES	good (at least 70%) or total protection
Cc1cc(C(=O)N(Cc2ccc(Oc3ccccc3)cc2)C2CC2)c(C(F)(F)F)o1 [Compound 20]	at least 70%
Cn1cc(C(=O)N(Cc2cc3c(cc2Cl)OCO3)C2CC2)c(C(F)(F)F)n1 [Compound 347]	at least 70%

From patent US8088927B2, “Fungicide N-cycloalkyl-benzyl-amide derivatives” (Bayer Cropscience AG, priority 2006, dated 2012)
